Laboratory results published in patent US6444695B1, “Inhibition of thrombin-induced platelet aggregation by creatine kinase inhibitors” (The Regents of the University of California, priority 2000, dated 2002).
At least one compound was matched to its structure with a doubt left.

Tested on: human umbilical vein endothelial cells (HUVEC)
Test: Intracellular calcium assay (Fluo-3, FLIPR) in HUVEC after thrombin
Assay type: cell-based
Protocol: To assay for intracellular calcium levels, cell media was decanted and replaced with Fluo-3 AM (Molecular Probes) in […] of loading buffer with 1% Fetal Calf Serum (FCS) for 1 hour. Cells were rinsed with loading buffer and the 96-well plate was placed into a Fluorometric Imaging Plate Reader (FLIPR, Molecular Devices, Sunnyvale, Calif.). The relative intracellular calcium levels were monitored at […] for 210 seconds in 4 to 8 identically treated wells. To monitor calcium release from intracellular stores thrombin was delivered in buffer containing 10 mM EDTA. Various phospholipase C inhibitors were applied as well.

## COC1=C2C[C@@H](C)C[C@H](OC)[C@H](O)[C@@H](C)/C=C(\C)[C@H](OC(N)=O)[C@@H](OC)/C=C\C=C(/C)C(=O)NC(=CC1=O)C2=O [geldanamycin]
  effect on thrombin-induced calcium response (peak fluorescence): no significant changes
